Measurements taken from publication PMC8019791.
No constants are given. Whether binding was seen depends on the method and setting. In cells and extracts the contact can be indirect. A result given as binding can be weak or reduced; the word gives no strength. Where a sequence is shown, tags or fusion partners need not be part of it.

Target: T1, CC IFT20-GST (UniProt Q8IY31)
T1 sequence: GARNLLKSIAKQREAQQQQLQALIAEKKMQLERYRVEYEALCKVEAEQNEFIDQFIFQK
Experiment: pull-down; recombinant GST fusion proteins on GSH-Sepharose incubated 2 h at 4°C with precleared postnuclear supernatants of Jurkat cells (5 x 10^7 cells/sample, 0.5% Triton X-100); 4 washes; immunoblot; only the target purified

binding: binds
Substance: Rab5 (human (endogenous in Jurkat))
